Measured values reported in US20240199600A1, “CONDENSED HETEROCYCLIC COMPOUND HAVING A SULFONAMIDE GROUP OR SALT THEREOF, AGRICULTURAL OR HORTICULTURAL INSECTICIDE OR ANIMAL ECTOPARASITE OR ENDOPARASITE CONTROL AGENT COMPRISING THE COMPOUND OR THE SALT THEREOF, AND METHOD FOR USING THE COMPOUND OR THE SALT THEREOF, THE INSECTICIDE, OR THE …” (NIHON NOHYAKU CO., LTD., priority 2021, published 2024).
Some of these results come from one statement about several compounds together. At least one structure is not confirmed: it was looked up by name or label, or the drawing left a doubt.

Experiments:
[1] = test system: Myzus persicae; assay: Test for control efficacy on Myzus persicae (foliar application, potted Chinese cabbage); assay type: in vivo; details: 500 ppm, foliar application to Chinese cabbage plants, 6 days after application
[2] = test system: Plutella xylostella; details: 500 ppm, seedlings with laid eggs dipped about 30 seconds, 25° C., 6 days after dip treatment
Method: Insecticidal test on Plutella xylostella
Adults of P. xylostella were released onto Chinese cabbage seedlings and allowed to lay eggs thereon. […] After air-dried, the seedlings were kept in a thermostatic chamber at 25° C. […] This test was conducted in triplicate using 10 adults of P. xviostella per plot.
Corrected mortality rate (%)100×(Number of hatched larvae in a non-treatment plot-Number of hatched larvae in a treatment plot)/Number of hatched larvae in a non-treatment plot [Math. 3]

[3] = test system: Laodelphax striatelius; details: 500 ppm, rice seedlings dipped 30 seconds, 3rd-instar larvae, 8 days after inoculation

SMILES | control efficacy (control rate), activity level [1] | insecticidal efficacy (corrected mortality rate), activity level [2] | insecticidal efficacy (corrected mortality rate), activity level [3]
CNS(=O)(=O)c1cc(Br)cnc1-c1nc2cc(C(F)(F)F)cnc2n1C [Compound 1-18] | A (the control rate is 100%) | A (the corrected mortality rate is 100%) | A (the corrected mortality rate is 100%)
Cc1noc(-c2cnc(-c3nc4cc(C(F)(F)C(F)(F)F)nnc4n3C)c(S(=O)(=O)N(C)C)c2)n1 [Compound 2-11] | A (the control rate is 100%) | A (the corrected mortality rate is 100%) | A (the corrected mortality rate is 100%)
Cc1nnc(-c2cnc(-c3nc4cc(C(F)(F)C(F)(F)F)nnc4n3C)c(S(=O)(=O)N(C)C)c2)o1 [Compound 2-12] | A (the control rate is 100%) | A (the corrected mortality rate is 100%) | A (the corrected mortality rate is 100%)
Cc1nsc(-c2cnc(-c3nc4cc(C(F)(F)F)cnc4n3C)c(S(=O)(=O)N(C)C)c2)n1 [Compound 1-63] | A (the control rate is 100%) | A (the corrected mortality rate is 100%) | A (the corrected mortality rate is 100%)
CNS(=O)(=O)c1cccnc1-c1nc2cc(OC(F)(F)F)ccc2n1C [Compound 3-1] | A (the control rate is 100%) | A (the corrected mortality rate is 100%) | A (the corrected mortality rate is 100%)
CNS(=O)(=O)c1cc(NC(=O)OC(C)(C)C)cnc1-c1nc2ccc(C(F)(F)F)cn2n1 [Compound 5-17] | A (the control rate is 100%) | A (the corrected mortality rate is 100%) | A (the corrected mortality rate is 100%)
CN(C)S(=O)(=O)c1cc(C(=O)O)cnc1-c1nc2cc(C(F)(F)C(F)(F)F)nnc2n1C [Compound 2-13] | A (the control rate is 100%) | A (the corrected mortality rate is 100%) | A (the corrected mortality rate is 100%)
CC(=O)Nc1ccc(-c2cnc(-c3nc4cc(C(F)(F)F)cnc4n3C)c(S(=O)(=O)N(C)C)c2)cc1 [Compound 1-43] | A (the control rate is 100%) | A (the corrected mortality rate is 100%) | A (the corrected mortality rate is 100%)
CN(C)S(=O)(=O)c1cc(-c2ncc(C#N)cn2)cnc1-c1nc2cc(C(F)(F)F)cnc2n1C [Compound 1-55] | A (the control rate is 100%) | A (the corrected mortality rate is 100%) | A (the corrected mortality rate is 100%)
CN(C)S(=O)(=O)c1cc(-c2ccc(F)cc2)cnc1-c1cn2cc(C(F)(F)F)ccc2n1 [Compound 5-12] | A (the control rate is 100%) | A (the corrected mortality rate is 100%) | A (the corrected mortality rate is 100%)
CN(C)S(=O)(=O)c1cc(-c2ccc(Cl)nn2)cnc1-c1nc2cc(C(F)(F)F)cnc2n1C [Compound 1-53] | A (the control rate is 100%) | A (the corrected mortality rate is 100%) | A (the corrected mortality rate is 100%)
CN(C)S(=O)(=O)c1ccc(-c2ccc(F)cc2)nc1-c1nc2cc(C(F)(F)F)ncc2n1C [Compound 9-3] | A (the control rate is 100%) | A (the corrected mortality rate is 100%) | A (the corrected mortality rate is 100%)
COC(=O)c1cnc(-c2nc3cc(C(F)(F)C(F)(F)F)nnc3n2C)c(S(=O)(=O)N(C)C)c1 [Compound 2-14] | A (the control rate is 100%) | A (the corrected mortality rate is 100%) | A (the corrected mortality rate is 100%)
CNS(=O)(=O)c1cc(-c2cccc(C(F)(F)F)c2)cnc1-c1nc2cc(C(F)(F)F)ccn2n1 [Compound 5-2] | A (the control rate is 100%) | A (the corrected mortality rate is 100%) | A (the corrected mortality rate is 100%)
CN(C)S(=O)(=O)c1cc(-c2cn(C)nn2)cnc1-c1nc2cc(C(F)(F)F)cnc2n1C [Compound 1-65] | A (the control rate is 100%) | A (the corrected mortality rate is 100%) | A (the corrected mortality rate is 100%)
CN(C)S(=O)(=O)c1cc(C2CC2)cnc1-c1cn2cc(C(F)(F)F)ccc2n1 [Compound 5-13] | A (the control rate is 100%) | A (the corrected mortality rate is 100%) | A (the corrected mortality rate is 100%)
CNS(=O)(=O)c1cc(C2(C#N)CC2)cnc1-c1nc2cc(C(F)(F)F)cnc2n1C [Compound 1-6] | A (the control rate is 100%) | A (the corrected mortality rate is 100%) | A (the corrected mortality rate is 100%)
Cn1c(-c2ncc(-c3ccc(F)cc3)cc2S(=O)(=O)N2CCC2)nc2cc(C(F)(F)F)cnc21 [Compound 1-10] | A (the control rate is 100%) | A (the corrected mortality rate is 100%) | A (the corrected mortality rate is 100%)
CN(C)S(=O)(=O)c1cc(-c2ncc(F)cn2)cnc1-c1nc2cc(C(F)(F)F)cnc2n1C [Compound 1-56] | A (the control rate is 100%) | A (the corrected mortality rate is 100%) | A (the corrected mortality rate is 100%)
Cc1cc(-c2cnc(-c3nc4cc(C(F)(F)F)cnc4n3C)c(S(=O)(=O)N(C)C)c2)nn1C [Compound 1-60] | A (the control rate is 100%) | A (the corrected mortality rate is 100%) | A (the corrected mortality rate is 100%)
CN(C)S(=O)(=O)c1cc(-c2ccc(C(F)(F)F)nc2)cnc1-c1nc2cc(C(F)(F)F)cnc2n1C [Compound 1-73] | A (the control rate is 100%) | A (the corrected mortality rate is 100%) | A (the corrected mortality rate is 100%)
CNS(=O)(=O)c1cc(-c2cccc(C(F)(F)F)c2)cnc1-c1nc2cc(C(F)(F)F)cnc2n1C [Compound 1-11] | A (the control rate is 100%) | A (the corrected mortality rate is 100%) | A (the corrected mortality rate is 100%)
CNC(=O)c1cnc(-c2nc3cc(C(F)(F)F)cnc3n2C)c(S(=O)(=O)N(C)C)c1 [Compound 1-15] | A (the control rate is 100%) | A (the corrected mortality rate is 100%) | A (the corrected mortality rate is 100%)
CCc1cccc(-c2cnc(-c3nc4cc(C(F)(F)F)cnc4n3C)c(S(=O)(=O)N(C)C)c2)c1 [Compound 1-45] | A (the control rate is 100%) | A (the corrected mortality rate is 100%) | A (the corrected mortality rate is 100%)
CNS(=O)(=O)c1cc(Br)cnc1-c1nc2ccc(C(F)(F)F)cn2n1 [Compound 5-10] | A (the control rate is 100%) | A (the corrected mortality rate is 100%) | A (the corrected mortality rate is 100%)
CN(C)S(=O)(=O)c1cc(-c2cccc(C(F)(F)F)c2)cnc1-c1nc2cc(C(F)(F)F)nnc2n1C [Compound 2-4] | A (the control rate is 100%) | A (the corrected mortality rate is 100%) | A (the corrected mortality rate is 100%)
Cc1cnc(-c2cnc(-c3nc4cc(C(F)(F)F)cnc4n3C)c(S(=O)(=O)N(C)C)c2)nc1 [Compound 1-57] | A (the control rate is 100%) | A (the corrected mortality rate is 100%) | A (the corrected mortality rate is 100%)
CN(C)S(=O)(=O)c1cc(Br)cnc1-c1cn2cc(C(F)(F)F)ccc2n1 [Compound 5-9] | A (the control rate is 100%) | A (the corrected mortality rate is 100%) | A (the corrected mortality rate is 100%)
